Laboratory results reported in paper PMC4525203.
Results are given in words; binding and its absence hold for the method and conditions named. Binding seen in cells or lysates may run through a third protein. Here binding means that the protein was enriched with, or labelled near, the bait; the list need not be complete. Tags and fused reporters may be left off the sequences shown.

T1: C-terminally 3xFlag-tagged Esrrb (oestrogen-related receptor beta) (mouse) (UniProt Q61539)
T1 sequence: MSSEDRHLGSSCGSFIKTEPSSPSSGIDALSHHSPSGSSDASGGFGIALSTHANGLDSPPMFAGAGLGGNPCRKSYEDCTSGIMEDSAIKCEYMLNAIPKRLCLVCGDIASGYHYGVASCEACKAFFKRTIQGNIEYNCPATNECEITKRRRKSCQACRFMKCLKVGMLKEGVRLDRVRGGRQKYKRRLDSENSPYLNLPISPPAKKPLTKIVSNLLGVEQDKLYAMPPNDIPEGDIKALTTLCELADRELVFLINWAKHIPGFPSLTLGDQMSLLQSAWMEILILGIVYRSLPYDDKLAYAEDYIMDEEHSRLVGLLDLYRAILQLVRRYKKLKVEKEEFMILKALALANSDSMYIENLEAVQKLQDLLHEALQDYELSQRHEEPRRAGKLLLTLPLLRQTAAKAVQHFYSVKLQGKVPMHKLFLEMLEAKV

B1: LINE-1 type transposase domain-containing protein 1 (protein, UniProt Q587J6 1-782)
chain: MSGVQSKAARLQKERKEKLSADRERKTATSLCLKHSEVPASMMKQFNALMEMQEVMFAEMRETYKNDIKEMLLKRTAPWVKHLEERIGQQEGDAISERPKPGEKVEELSSGTDEDTENLTVRSKKGKQDKAKPLNSSHVLKSSLERGGEALRGEHGRCGESSSLVDWKNANEKPAREASCQSEENRLKAPKESPPEGGAGATLRLAADFSAATLDVGRQWSQVFRLLKEKELEPELQCSVKLAFKCDGEANVFSDLHSLRQFTSRKPFLRELLKDVFPQNEGGRRNELRERLGKTLGDTKHEARRIASDSLSFLFIKEVEVASPEVKTYKEETLDRKNKGTLKKQEGEEEEISETQGEETSEGETSELGEEEGSESEEEEESSESEEEEESSESAEEIGFISLVVDSESEEEVNRKTASQTKKKETFHGLKELAFSYLVWDSKKKKLVRCQEGGAAAASTQRIGMPCLTLYLTSPSESLGAGSDGPKSHSCTKLSALSQVTPLLTNIEKGRYKVPQTEEPTAKEADLILETEENFKRGVISVIRQMQREVDKIKNIYVSDVLNMKSSLDDLNSLACTIEARVSEQEDAVEGLTKDTMQLAREIVDKERLREREDRFRSSNIRVIGIPEKENRENGAVDIIKEVIEENFAELEDQSLEIVSAHRVPNSVDEHRLTPRHILVKFGSASDKQRVLKASRAKQEITYRGSKIRLTADLSPGTIDARSQWCGIIKILQDEGFQPRILYPAKLAFDFKGKTKIFFDIEEFKKFISDIPYLKDLLNNIH
B2: Steroid hormone receptor ERR1 (protein, UniProt O08580 1-422)
chain: MSSQVVGIEPLYIKAEPASPDSPKGSSETETEPPVTLASGPAPARCLPGHKEEEDGEGAGSGEQGSGKLVLSSLPKRLCLVCGDVASGYHYGVASCEACKAFFKRTIQGSIEYSCPASNECEITKRRRKACQACRFTKCLRVGMLKEGVRLDRVRGGRQKYKRRPEVDPLPFPGPFPAGPLAVAGGPRKTAPVNALVSHLLVVEPEKLYAMPDPASPDGHLPAVATLCDLFDREIVVTISWAKSIPGFSSLSLSDQMSVLQSVWMEVLVLGVAQRSLPLQDELAFAEDLVLDEEGARAAGLGDLGAALLQLVRRLQALRLEREEYVLLKALALANSDSVHIEDAEAVEQLREALHEALLEYEAGRAGPGGGAERRRAGRLLLTLPLLRQTAGKVLAHFYGVKLEGKVPMHKLFLEMLEAMMD
B3: Upstream-binding protein 1 (protein, UniProt Q811S7 1-540)
chain: MAWVLSMDEVIESGLVHDFDSSLSGIGQELGAGAYSMSDVLALPIFKQEDSSLSLEDEAKHPPFQYVMCAATSPAVKLHDETLTYLNQGQSYEIRMLDNRKMGDMPELSGKLVKSIIRVVFHDRRLQYTEHQQLEGWKWNRPGDRLLDLDIPMSVGIIDTRTNPSQLNAVEFLWDPAKRTSAFIQVHCISTEFTPRKHGGEKGVPFRIQVDTFKQNENGEYTDHLHSASCQIKVFKPKGADRKQKNDREKMEKRTAHEKEKYQPSYDTTILTEMRLEPIIEDAVEHEQKKSSKRTLPADYGDSLAKRGSCSPWPDTPTAYVNNSPSPAPTFTSSQPSTCSVPDSNSSSPNHQGDGAAQASGEQIQPSATTQETQQWLLKNRFSSYTRLFSNFSGADLLKLTKEDLVQICGAADGIRLYNSLKSRSVRPRLTIYVCQEQPSSTALQGQPQAAGSGGESGGGTPSVYHAIYLEEMVASEVARKLASVFNIPFHQINQVYRQGPTGIHILVSDQMVQNFQDETCFLFSTVKAENNDGIHIILK

Biological target: T1, C-terminally 3xFlag-tagged Esrrb (oestrogen-related receptor beta) (mouse)
Experiment: affinity purification with mass spectrometry; anti-FLAG M2 agarose IP of Esrrb-3xFlag from TS cell nuclear extract dialysed to buffer D (20 mM Hepes pH 7.6, 20% glycerol, 100 mM KCl, 1.5 mM MgCl2, 0.2 mM EDTA), 3 h at 4 °C with Benzonase, elution with FLAG-tripeptide, LC-MS/MS; two biological replicates against vector control

| binding | Binder |
| --- | --- |
| binds | B1 |
| binds | B2 |
| binds | B3 |
